# Measured values as given in PubChem BioAssay AID493014 (National Center for Advancing Translational Sciences (NCATS), 2011).
# Some of the results follow. Shown are side measurements of this screen, not its main read-out; they come without a call. Most of these compounds were active or inconclusive in the main read-out, so they are no random draw. Potencies come from curve fits of mixed quality, noted in brackets.
# Test: qHTS Assay to Find Inhibitors of Chronic Active B-Cell Receptor Signaling
# Details: ABC-DLBCL IkBa-CBG/CBR reporter, luminescence ratio (green luciferase fused to IkBa over red control in TMD8 lymphoma cells), 4 h
# Method in brief: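 TMD8 ABC-DLBCL cells carrying doxycycline-inducible green luciferase fused to IkappaBalpha plus unfused red luciferase were exposed to compounds (up to 46 uM) for 4 hrs at 37C. Activity came from the overlap-corrected green/red luminescence ratio.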
# [1] = measured here: CBR red luminescence, cell number
# [2] = measured here: IkBa-CBG green luminescence
Structure (SMILES),AC50 [1],AC50 [2]
CC(C)=CCN1CC[C@@]2(C)c3cc(O)ccc3CC1C2C (some centres not stated),"8.2 µM [rising, single point]",
CC1(C)CC(C)(O)P(=O)(c2ccccc2)O1 (configuration not stated),"4.61 µM [rising, partial curve, poor fit]",
COC(=O)C1=C(c2ccccc2OCc2ccccc2)C[C@@H]2CC[C@H]1N2C(=O)NCc1ccc(N(C)C)cc1,"20.6 µM [falling, single point]",
CN1CCN(c2c(N)c(=O)oc3ccccc23)CC1,"29.1 µM [falling, single point]",
COc1ccccc1OCCCn1cc(C(=O)c2ccco2)c2ccccc21,"25.9 µM [falling, single point]",
O=C(Nc1ccc(N2CCN(C(=O)c3cccs3)CC2)cc1)c1ccccc1Cl,"12.6 µM [falling, partial curve]",
COC(=O)C1=C(c2ccc(C(C)=O)cc2)C[C@@H]2CC[C@H]1N2C(=O)N1CCC(C)CC1,"20.6 µM [falling, single point]",
COc1cc(OC)c(OC)cc1CNC(C)C(O)c1ccccc1 (configuration not stated),"20 µM [rising, single point]",
C=CCNC(=O)c1c(N)n(Cc2ccco2)c2nc3ccccc3nc12,"8.91 µM [falling, partial curve, poor fit]",
CN(C)[C@@H]1C(=O)C(C(N)=O)=C(O)[C@@]2(O)C(=O)C3=C(O)c4c(O)cccc4[C@@](C)(O)[C@H]3[C@H](O)[C@@H]12,"0.82 µM [falling, full curve, poor fit]",
CN(C(=O)CNC(=O)OCc1ccccc1)c1ccc(Br)cc1C(=O)c1ccccc1Cl,,"29.1 µM [falling, single point]"
CC1=Nc2cc(C(=O)NCCCOC(C)C)ccc2Sc2ccc(C)cc21,"3.55 µM [rising, partial curve, poor fit]",
CCOc1cc2c(cc1OCC)-n1cccc1C(c1ccc(C(C)C)cc1)NC2 (configuration not stated),"35.5 µM [falling, single point]",
CN1CCN(c2ccc(N)cc2)CC1,"0.00651 µM [rising, full curve, poor fit]",
CN(c1ccccc1)c1ccc([N+](=O)[O-])c2nonc12,"17.8 µM [rising, partial curve, poor fit]",
C/C(=N\N1CCCCCC1)c1c(O)n(C2CCCCC2)c(=O)[nH]c1=O,"7.94 µM [rising, partial curve, poor fit]",
COCCCn1c(-c2ccc(OC)cc2)cc(C(=O)NC2CCCCCCC2)c1C,"0.231 µM [falling, partial curve, poor fit]",
CC(C)OP(=O)(OC(C)C)C(Nc1ccccc1)c1cccc2c1OCO2 (configuration not stated),"29.1 µM [falling, single point]",
CCCCn1c(O)c(C(CC)=Nc2cccc(C(=O)O)c2)c(=O)[nH]c1=O,"9.2 µM [rising, partial curve, poor fit]",
O=C(CNC(=O)c1cccc(Cl)c1)Nc1ccc(Br)cc1C(=O)c1ccccc1,"29.1 µM [falling, single point]",

# Filtered by structure: the entries above containing a furan ring, fused or not.
Structure (SMILES),AC50 [1],AC50 [2]
COc1ccccc1OCCCn1cc(C(=O)c2ccco2)c2ccccc21,"25.9 µM [falling, single point]",
C=CCNC(=O)c1c(N)n(Cc2ccco2)c2nc3ccccc3nc12,"8.91 µM [falling, partial curve, poor fit]",

# (more compounds)

Structure (SMILES),AC50 [1],AC50 [2]
C/C(CC(c1ccccc1)c1c(O)c2ccccc2oc1=O)=N\NC(N)=S (configuration not stated),,"23.1 µM [falling, single point]"
COc1ccc(CNCCc2ccc(Cl)cc2Cl)cc1,"0.2 µM [falling, partial curve, poor fit]",
CC(=O)Nc1cccc(OCC(=O)/C=C2\N(C)c3ccccc3C2(C)C)c1,"25.1 µM [falling, single point]",
CC/C(=N\NC(=O)Nc1ccccc1)c1c(O)n(Cc2ccccc2)c(=O)[nH]c1=O,"12.6 µM [falling, single point]",
CCOP(=O)(OCC)/C(C#N)=C/c1ccoc1,"22.4 µM [rising, single point]",
O=C1NC(=O)N(Cc2ccccc2)C(=O)/C1=C\C=C\c1ccco1,"35.5 µM [rising, single point]","17.8 µM [falling, partial curve, poor fit]"
CC(Cc1cccs1)NCc1ccc(Cl)cc1 (configuration not stated),"10 µM [rising, partial curve, poor fit]",
CC12CN3CN(C1)CC(c1ccccc1)(C3)C2=O,"2.91 µM [rising, single point]",
Cc1ccc(N2CCN(CCc3ccccc3)CC2)cc1,"15.8 µM [rising, partial curve, poor fit]",
CCOc1ccc(NC(=O)Cn2c(=O)oc3ccccc32)cc1,"18.4 µM [falling, single point]",
Clc1ccc(C[n+]2c(-c3ccccc3)cc(-c3ccccc3)cc2-c2ccccc2)cc1,"3.66 µM [falling, full curve, poor fit]","16.4 µM [rising, partial curve, poor fit]"
COc1ccc(-n2c(C)nc3c(cnn3-c3ccc(C)c(C)c3)c2=O)cc1,"11.2 µM [rising, partial curve, poor fit]",
O=C(COc1ccccc1)c1cn(Cc2ccccc2)c2ccccc12,"0.259 µM [falling, full curve]",
CC1(O)CCN2C(=O)CCc3cccc1c32 (configuration not stated),"16.4 µM [falling, partial curve, poor fit]",
COC(=O)C1=C(c2ccc(OCc3ccccc3)cc2)C[C@@H]2CC[C@H]1N2C(=O)NCc1cccc(C(F)(F)F)c1,"6.51 µM [falling, partial curve]",
COc1cc(C=C2C(=O)NC(=O)NC2=O)ccc1O,"10 µM [rising, partial curve, poor fit]",
NC(N)=N/N=C/c1cn(-c2ccccc2)nc1-c1cccs1,"11.2 µM [falling, partial curve, poor fit]",
Cc1ccc(/C=C/C(O)=C2/C(=O)N(C)C3(C)CC2c2ccccc2O3)cc1 (configuration not stated),"14.1 µM [falling, single point]",
O=S(=O)(Cc1ccccc1)Nc1ccc(Br)cn1,"22.4 µM [rising, single point]",
COc1ccc(C(=O)Nc2ccc(C)c(S(=O)(=O)N3CCCCCC3)c2)cc1,"20 µM [falling, partial curve, poor fit]",
